{
  "sequences": {"note": "The chains behind the UniProt entries cited, without tags or fusion partners. Where a name states a change or a piece, a line headed by the entry shows the natural chain unless it says otherwise.", "UniProt Q03347": "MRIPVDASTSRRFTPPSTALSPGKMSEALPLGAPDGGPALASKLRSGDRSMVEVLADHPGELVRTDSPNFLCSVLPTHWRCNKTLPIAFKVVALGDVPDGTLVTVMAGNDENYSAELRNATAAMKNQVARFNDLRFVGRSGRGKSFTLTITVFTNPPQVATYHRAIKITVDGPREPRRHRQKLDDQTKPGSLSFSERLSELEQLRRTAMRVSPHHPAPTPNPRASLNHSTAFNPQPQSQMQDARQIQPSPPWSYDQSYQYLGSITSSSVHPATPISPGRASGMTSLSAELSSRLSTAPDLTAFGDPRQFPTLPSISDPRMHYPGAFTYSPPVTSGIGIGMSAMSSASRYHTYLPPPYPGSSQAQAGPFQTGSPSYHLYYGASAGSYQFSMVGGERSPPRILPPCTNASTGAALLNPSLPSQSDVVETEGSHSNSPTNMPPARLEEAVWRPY", "UniProt P25799": "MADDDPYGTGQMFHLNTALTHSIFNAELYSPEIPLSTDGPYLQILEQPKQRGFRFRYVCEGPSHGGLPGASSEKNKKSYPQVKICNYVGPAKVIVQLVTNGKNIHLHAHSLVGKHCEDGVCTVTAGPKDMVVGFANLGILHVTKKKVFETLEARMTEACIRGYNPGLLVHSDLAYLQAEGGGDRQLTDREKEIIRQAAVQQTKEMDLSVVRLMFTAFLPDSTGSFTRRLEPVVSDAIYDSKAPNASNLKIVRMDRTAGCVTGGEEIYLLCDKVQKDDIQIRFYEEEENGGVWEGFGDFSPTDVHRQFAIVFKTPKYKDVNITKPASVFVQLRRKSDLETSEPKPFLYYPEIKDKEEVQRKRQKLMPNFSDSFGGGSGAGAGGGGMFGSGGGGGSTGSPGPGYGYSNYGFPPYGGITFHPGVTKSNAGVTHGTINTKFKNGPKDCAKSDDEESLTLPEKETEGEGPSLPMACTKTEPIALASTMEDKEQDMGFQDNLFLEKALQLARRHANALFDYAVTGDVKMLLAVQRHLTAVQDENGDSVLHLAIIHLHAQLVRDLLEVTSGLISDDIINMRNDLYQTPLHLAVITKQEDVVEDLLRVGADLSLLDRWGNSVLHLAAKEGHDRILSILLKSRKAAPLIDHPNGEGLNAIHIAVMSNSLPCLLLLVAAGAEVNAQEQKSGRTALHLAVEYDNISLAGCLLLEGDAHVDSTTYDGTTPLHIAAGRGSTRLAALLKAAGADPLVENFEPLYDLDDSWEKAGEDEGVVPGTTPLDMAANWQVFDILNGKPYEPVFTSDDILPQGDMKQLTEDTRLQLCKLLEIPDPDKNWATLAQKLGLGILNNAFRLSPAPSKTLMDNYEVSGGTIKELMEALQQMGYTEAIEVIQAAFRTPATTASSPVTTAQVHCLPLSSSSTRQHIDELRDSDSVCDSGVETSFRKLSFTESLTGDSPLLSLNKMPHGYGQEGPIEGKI"},
  "source": "paper PMC10415221",
  "key": {"[1]": {"target": "RUNX1 (Runt-related transcription factor 1) (mouse (endogenous in mouse tissue)) (UniProt Q03347)", "test": "co-IP; 100 µg of lysate (Pierce IP Lysis buffer) incubated overnight at 4°C with the immunoprecipitating antibody (RUNX1 or NFκB1) along with an isotype control antibody; Protein A/G PLUS-Agarose 2 h at 4°C; SDS-PAGE and immunoblot; both orientations"}, "[2]": {"target": "NFκB1 (p105/50) (mouse (endogenous in mouse tissue)) (UniProt P25799)", "test": "co-IP; 100 µg of lysate (Pierce IP Lysis buffer) incubated overnight at 4°C with the immunoprecipitating antibody (RUNX1 or NFκB1) along with an isotype control antibody; Protein A/G PLUS-Agarose 2 h at 4°C; SDS-PAGE and immunoblot; both orientations"}},
  "note": "These are yes or no findings as the source states them, for the method shown. Binding seen in cells or lysates may run through a third protein. Some entries that bind do so weakly or less than the wild type.",
  "data": [
    {"substance": "NFκB1 (p105/50) (from UniProt P25799-1 1-971)", "values": [
      {"measurement": "binding", "setting": "[1]", "result": "binds"}
    ]},
    {"substance": "RUNX1 (Runt-related transcription factor 1) (from UniProt Q03347 1-451)", "values": [
      {"measurement": "binding", "setting": "[2]", "result": "binds"}
    ]}
  ]
}
